We go through two sequences from publication PMC3281051.

Series [1] relates to VEGF165 (human). As to the kind of experiment: SPR. The note with it: SPR (BIAcore 2000, CM5): PBS + 0.005% Tween-20, 25 C, 30 ul/min, aptamer 0.2-100 nM, 1:1 Langmuir fit; commercial protein; protein details: carrier-free; single-stranded DNA; letters put together from the description.
In series [2] the test system is T1, VEGF165 heparin-binding domain.
T1 sequence (looked up, limits assumed): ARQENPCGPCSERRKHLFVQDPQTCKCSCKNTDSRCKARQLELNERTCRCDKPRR
As to the kind of experiment: binding assay. To be noted: SPR (BIAcore 2000, CM5): PBS + 0.005% Tween-20, 25 C, 30 ul/min, aptamer 0.2-100 nM, 1:1 Langmuir fit; cells: culture medium, 37 C, 2 h, 1% O2; recombinant protein; single-stranded DNA. In general terms: SPR reads the build-up and loss of mass on a sensor chip optically.

A word on the Kd: it is the free concentration of one partner at which half of the binding sites on the other are occupied at equilibrium, for simple one-to-one binding.

Construct, isoform or probe ends are uncertain for at least one entry. For some assays here: Protein sequences can lack the tags named with them.

As to “ATACCAGTCTATTCAATTGGGCCCGTCCGTATGGTGGG [SL12]”, the Kd in series [1] worked out at 5 nM.

On to “ATACCAGTCTATTCAATTGGGCCCGTCCGTATGGTGGGTGTGCTGGCCAGATAGTATGTGCAATCA [VEa5]”, for which the Kd in series [2] is 130 nM.
